Measured values: PMC8331092
No constants are given. Whether binding was seen depends on the method and setting. For part of these data: Binding seen in cells or lysates may run through a third protein. Some binding calls cover weakened binding; strength is not graded here.

Protein sequences, listed by entry. Tags and fused reporters are not part of them.
UniProt Q9BRT9: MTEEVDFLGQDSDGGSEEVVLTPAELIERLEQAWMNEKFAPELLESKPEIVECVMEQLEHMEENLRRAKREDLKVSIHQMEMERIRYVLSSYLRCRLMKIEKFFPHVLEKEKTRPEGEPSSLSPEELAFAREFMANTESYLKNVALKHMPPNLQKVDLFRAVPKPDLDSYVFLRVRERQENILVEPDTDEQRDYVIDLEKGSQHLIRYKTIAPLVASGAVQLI
UniProt Q9NRF9: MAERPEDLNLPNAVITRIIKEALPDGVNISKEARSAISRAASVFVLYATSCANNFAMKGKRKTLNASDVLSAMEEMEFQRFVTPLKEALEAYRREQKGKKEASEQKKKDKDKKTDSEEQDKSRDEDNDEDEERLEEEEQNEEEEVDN
UniProt Q9UNS1: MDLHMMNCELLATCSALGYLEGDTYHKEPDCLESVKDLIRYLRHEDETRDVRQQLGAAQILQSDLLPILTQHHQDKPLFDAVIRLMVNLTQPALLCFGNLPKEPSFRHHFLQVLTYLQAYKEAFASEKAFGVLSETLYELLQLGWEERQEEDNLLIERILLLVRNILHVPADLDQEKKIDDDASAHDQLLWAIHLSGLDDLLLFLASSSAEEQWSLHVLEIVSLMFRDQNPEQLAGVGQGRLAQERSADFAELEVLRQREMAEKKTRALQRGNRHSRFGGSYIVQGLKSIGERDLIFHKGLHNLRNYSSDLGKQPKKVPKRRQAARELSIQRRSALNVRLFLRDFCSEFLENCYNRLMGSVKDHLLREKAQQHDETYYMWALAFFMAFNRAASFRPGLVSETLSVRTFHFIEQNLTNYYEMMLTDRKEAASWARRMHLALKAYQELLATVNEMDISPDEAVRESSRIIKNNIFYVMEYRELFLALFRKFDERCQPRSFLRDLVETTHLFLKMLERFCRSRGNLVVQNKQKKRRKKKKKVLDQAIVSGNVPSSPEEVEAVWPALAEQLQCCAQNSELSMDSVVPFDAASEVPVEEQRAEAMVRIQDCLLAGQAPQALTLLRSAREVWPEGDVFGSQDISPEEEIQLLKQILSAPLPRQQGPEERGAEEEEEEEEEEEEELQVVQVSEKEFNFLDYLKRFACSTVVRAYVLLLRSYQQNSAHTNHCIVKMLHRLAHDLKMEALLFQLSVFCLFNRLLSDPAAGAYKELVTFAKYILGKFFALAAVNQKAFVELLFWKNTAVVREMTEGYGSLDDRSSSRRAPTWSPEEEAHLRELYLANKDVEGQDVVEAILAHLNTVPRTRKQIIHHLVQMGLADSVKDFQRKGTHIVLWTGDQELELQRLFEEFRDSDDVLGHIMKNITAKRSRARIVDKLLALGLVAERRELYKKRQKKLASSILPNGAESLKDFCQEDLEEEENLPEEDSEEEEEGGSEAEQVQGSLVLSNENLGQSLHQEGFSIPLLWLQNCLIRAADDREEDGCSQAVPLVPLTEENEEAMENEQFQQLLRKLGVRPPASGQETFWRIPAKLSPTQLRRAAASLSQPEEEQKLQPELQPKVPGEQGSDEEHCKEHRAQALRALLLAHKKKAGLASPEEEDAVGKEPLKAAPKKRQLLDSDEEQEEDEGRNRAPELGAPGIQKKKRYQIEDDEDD
UniProt P49736: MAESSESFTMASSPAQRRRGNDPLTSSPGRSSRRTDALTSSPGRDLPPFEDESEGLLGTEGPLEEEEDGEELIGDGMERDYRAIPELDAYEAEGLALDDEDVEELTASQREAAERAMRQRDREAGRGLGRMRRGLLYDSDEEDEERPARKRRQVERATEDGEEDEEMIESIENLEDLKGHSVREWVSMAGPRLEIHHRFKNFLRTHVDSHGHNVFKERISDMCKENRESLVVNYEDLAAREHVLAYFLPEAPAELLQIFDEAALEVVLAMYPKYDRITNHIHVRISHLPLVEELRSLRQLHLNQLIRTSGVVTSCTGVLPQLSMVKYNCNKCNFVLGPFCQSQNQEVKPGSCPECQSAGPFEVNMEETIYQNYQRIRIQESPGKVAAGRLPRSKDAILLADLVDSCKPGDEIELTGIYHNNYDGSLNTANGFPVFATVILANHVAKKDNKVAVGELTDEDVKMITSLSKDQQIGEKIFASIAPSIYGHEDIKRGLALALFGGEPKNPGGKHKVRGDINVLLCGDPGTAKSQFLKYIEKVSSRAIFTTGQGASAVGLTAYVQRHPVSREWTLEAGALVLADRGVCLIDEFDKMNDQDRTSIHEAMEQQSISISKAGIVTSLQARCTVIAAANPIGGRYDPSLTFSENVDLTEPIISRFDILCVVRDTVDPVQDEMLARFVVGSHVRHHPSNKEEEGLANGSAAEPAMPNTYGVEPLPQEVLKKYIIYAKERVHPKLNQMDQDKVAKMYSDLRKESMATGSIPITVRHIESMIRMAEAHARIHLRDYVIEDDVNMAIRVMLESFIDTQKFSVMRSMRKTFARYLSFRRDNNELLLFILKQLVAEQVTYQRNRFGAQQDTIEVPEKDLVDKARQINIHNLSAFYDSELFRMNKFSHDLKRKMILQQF
UniProt Q07864: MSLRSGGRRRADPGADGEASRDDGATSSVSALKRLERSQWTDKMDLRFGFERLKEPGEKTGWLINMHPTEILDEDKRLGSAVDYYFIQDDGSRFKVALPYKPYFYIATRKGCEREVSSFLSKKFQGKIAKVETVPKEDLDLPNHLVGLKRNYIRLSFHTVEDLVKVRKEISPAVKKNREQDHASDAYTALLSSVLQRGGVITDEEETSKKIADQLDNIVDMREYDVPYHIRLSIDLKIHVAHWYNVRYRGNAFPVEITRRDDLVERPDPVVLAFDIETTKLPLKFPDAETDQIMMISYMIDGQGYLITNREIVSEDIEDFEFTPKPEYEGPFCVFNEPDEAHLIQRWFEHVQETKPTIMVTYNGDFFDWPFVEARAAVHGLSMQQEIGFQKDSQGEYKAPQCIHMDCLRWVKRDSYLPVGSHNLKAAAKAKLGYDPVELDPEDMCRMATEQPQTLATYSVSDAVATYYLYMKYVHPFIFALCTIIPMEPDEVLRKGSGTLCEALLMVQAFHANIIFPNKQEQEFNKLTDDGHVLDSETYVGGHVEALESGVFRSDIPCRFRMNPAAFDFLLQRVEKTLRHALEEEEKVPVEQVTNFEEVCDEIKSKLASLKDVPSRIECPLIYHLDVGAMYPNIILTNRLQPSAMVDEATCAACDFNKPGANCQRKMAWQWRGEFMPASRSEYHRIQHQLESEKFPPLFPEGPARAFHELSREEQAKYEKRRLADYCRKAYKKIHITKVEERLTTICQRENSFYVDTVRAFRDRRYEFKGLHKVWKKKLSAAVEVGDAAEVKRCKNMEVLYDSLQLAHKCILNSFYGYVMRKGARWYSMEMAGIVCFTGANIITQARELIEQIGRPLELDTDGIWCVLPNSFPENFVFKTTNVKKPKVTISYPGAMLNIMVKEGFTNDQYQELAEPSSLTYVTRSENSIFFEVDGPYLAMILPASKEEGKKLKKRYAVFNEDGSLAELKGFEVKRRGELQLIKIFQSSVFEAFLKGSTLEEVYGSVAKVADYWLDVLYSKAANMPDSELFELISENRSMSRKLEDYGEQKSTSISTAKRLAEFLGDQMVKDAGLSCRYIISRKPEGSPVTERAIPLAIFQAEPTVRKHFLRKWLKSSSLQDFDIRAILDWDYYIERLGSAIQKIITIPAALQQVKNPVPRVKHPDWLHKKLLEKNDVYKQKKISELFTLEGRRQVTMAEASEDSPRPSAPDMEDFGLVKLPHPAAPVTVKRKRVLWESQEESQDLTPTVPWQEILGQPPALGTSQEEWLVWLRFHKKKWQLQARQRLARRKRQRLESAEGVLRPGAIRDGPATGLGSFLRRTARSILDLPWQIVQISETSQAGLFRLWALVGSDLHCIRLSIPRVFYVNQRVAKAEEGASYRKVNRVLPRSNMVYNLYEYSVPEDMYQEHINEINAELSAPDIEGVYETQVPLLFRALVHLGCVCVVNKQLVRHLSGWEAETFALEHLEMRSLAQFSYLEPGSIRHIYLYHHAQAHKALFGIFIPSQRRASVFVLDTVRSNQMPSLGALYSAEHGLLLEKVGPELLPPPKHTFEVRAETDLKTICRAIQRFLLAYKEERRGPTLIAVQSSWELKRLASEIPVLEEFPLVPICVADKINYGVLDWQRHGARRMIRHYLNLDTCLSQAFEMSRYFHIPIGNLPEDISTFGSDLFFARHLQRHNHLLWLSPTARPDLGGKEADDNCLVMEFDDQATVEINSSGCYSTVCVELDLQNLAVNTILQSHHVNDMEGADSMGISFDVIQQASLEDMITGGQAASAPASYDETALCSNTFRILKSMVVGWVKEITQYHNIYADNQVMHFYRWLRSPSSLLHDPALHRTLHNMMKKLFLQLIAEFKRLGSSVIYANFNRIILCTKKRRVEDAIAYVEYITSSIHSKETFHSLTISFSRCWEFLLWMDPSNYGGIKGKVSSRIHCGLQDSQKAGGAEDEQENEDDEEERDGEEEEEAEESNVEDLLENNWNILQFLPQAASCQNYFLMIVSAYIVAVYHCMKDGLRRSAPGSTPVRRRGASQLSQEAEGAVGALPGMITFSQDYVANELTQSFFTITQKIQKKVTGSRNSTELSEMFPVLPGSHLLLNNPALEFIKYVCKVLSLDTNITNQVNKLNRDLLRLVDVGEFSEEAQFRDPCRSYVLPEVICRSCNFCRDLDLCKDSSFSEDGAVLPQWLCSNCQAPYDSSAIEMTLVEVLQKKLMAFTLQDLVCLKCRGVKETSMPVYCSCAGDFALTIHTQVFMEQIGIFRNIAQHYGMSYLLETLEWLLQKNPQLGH

How the values were obtained:
[1] = target: GFP-SLD5 (human (endogenous in RPE1)) (UniProt Q9BRT9); assay: co-IP; GFP-Trap agarose beads, 2 h at 4°C, extracts of homozygous GFP-SLD5 RPE1 cells digested with Pierce Universal Nuclease; 100 mM HEPES-KOH pH 7.9, 100 mM potassium acetate, 10 mM magnesium acetate; immunoblotting; cells treated as indicated with 5 µM CB-5083 (4 h) and 5 µM MLN4924 (6 h)
[2] = target: Streptag-Tev-POLE3 (human) (UniProt Q9NRF9); assay: co-purification (Strep-Tactin affinity, then SEC); DNA polymerase epsilon: subunits co-expressed in Sf21 cells; lysate on Strep-Tactin Superflow beads by Streptag-Tev-POLE3, 500 mM KOAc, elution with desthiobiotin, Superdex 200
[3] = target: Streptag-Tev-TIMELESS (human) (UniProt Q9UNS1); assay: co-purification (Strep-Tactin affinity, then SEC); TIMELESS-TIPIN: co-expressed in Sf21 cells; lysate on Strep-Tactin Superflow beads by Streptag-Tev-TIMELESS, 150 mM NaCl, elution with desthiobiotin, tag cleaved with Tev protease, Superdex 200

Molecule: MCM2 (from UniProt P49736 1-904)
- binding [1]: binds

Molecule: POLE1 (from UniProt Q07864 1-2286)
- binding [2]: binds

B1: CDC45 (protein, UniProt O75419 1-566)
chain: MFVSDFRKEFYEVVQSQRVLLFVASDVDALCACKILQALFQCDHVQYTLVPVSGWQELETAFLEHKEQFHYFILINCGANVDLLDILQPDEDTIFFVCDTHRPVNVVNVYNDTQIKLLIKQDDDLEVPAYEDIFRDEEEDEEHSGNDSDGSEPSEKRTRLEEEIVEQTMRRRQRREWEARRRDILFDYEQYEYHGTSSAMVMFELAWMLSKDLNDMLWWAIVGLTDQWVQDKITQMKYVTDVGVLQRHVSRHNHRNEDEENTLSVDCTRISFEYDLRLVLYQHWSLHDSLCNTSYTAARFKLWSVHGQKRLQEFLADMGLPLKQVKQKFQAMDISLKENLREMIEESANKFGMKDMRVQTFSIHFGFKHKFLASDVVFATMSLMESPEKDGSGTDHFIQALDSLSRSNLDKLYHGLELAKKQLRATQQTIASCLCTNLVISQGPFLYCSLMEGTPDVMLFSRPASLSLLSKHLLKSFVCSTKNRRCKLLPLVMAAPLSMEHGTVTVVGIPPETDSSDRKNFFGRAFEKAAESTSSRMLHNHFDLSVIELKAEDRSKFLDALISLLS
- binding [1]: binds

B2: TIPIN (protein, UniProt Q9BVW5 1-301)
chain: MLEPQENGVIDLPDYEHVEDETFPPFPPPASPERQDGEGTEPDEESGNGAPVRVPPKRTVKRNIPKLDAQRLISERGLPALRHVFDKAKFKGKGHEAEDLKMLIRHMEHWAHRLFPKLQFEDFIDRVEYLGSKKEVQTCLKRIRLDLPILHEDFVSNNDEVAENNEHDVTSTELDPFLTNLSESEMFASELSRSLTEEQQQRIERNKQLALERRQAKLLSNSQTLGNDMLMNTPRAHTVEEVNTDEDQKEESNGLNEDILDNPCNDAIANTLNEEETLLDQSFKNVQQQLDATSRNITEAR
- binding [3]: binds

B3: POLE2 (protein, UniProt P56282 1-527)
chain: MAPERLRSRALSAFKLRGLLLRGEAIKYLTEALQSISELELEDKLEKIINAVEKQPLSSNMIERSVVEAAVQECSQSVDETIEHVFNIIGAFDIPRFVYNSERKKFLPLLMTNHPAPNLFGTPRDKAEMFRERYTILHQRTHRHELFTPPVIGSHPDESGSKFQLKTIETLLGSTTKIGDAIVLGMITQLKEGKFFLEDPTGTVQLDLSKAQFHSGLYTEACFVLAEGWFEDQVFHVNAFGFPPTEPSSTTRAYYGNINFFGGPSNTSVKTSAKLKQLEEENKDAMFVFLSDVWLDQVEVLEKLRIMFAGYSPAPPTCFILCGNFSSAPYGKNQVQALKDSLKTLADIICEYPDIHQSSRFVFVPGPEDPGFGSILPRPPLAESITNEFRQRVPFSVFTTNPCRIQYCTQEITVFREDLVNKMCRNCVRFPSSNLAIPNHFVKTILSQGHLTPLPLYVCPVYWAYDYALRVYPVPDLLVIADKYDPFTTTNTECLCINPGSFPRSGFSFKVFYPSNKTVEDSKLQGF
- binding [2]: binds

B4: POLE4 (protein, UniProt Q9NR33 1-117)
chain: MAAAAAAGSGTPREEEGPAGEAAASQPQAPTSVPGARLSRLPLARVKALVKADPDVTLAGQEAIFILARAAELFVETIAKDAYCCAQQGKRKTLQRRDLDNAIEAVDEFAFLEGTLD
- binding [2]: binds

B5: MCM3 (protein, UniProt P25205 1-808)
chain: MAGTVVLDDVELREAQRDYLDFLDDEEDQGIYQSKVRELISDNQYRLIVNVNDLRRKNEKRANRLLNNAFEELVAFQRALKDFVASIDATYAKQYEEFYVGLEGSFGSKHVSPRTLTSCFLSCVVCVEGIVTKCSLVRPKVVRSVHYCPATKKTIERRYSDLTTLVAFPSSSVYPTKDEENNPLETEYGLSVYKDHQTITIQEMPEKAPAGQLPRSVDVILDDDLVDKAKPGDRVQVVGTYRCLPGKKGGYTSGTFRTVLIACNVKQMSKDAQPSFSAEDIAKIKKFSKTRSKDIFDQLAKSLAPSIHGHDYVKKAILCLLLGGVERDLENGSHIRGDINILLIGDPSVAKSQLLRYVLCTAPRAIPTTGRGSSGVGLTAAVTTDQETGERRLEAGAMVLADRGVVCIDEFDKMSDMDRTAIHEVMEQGRVTIAKAGIHARLNARCSVLAAANPVYGRYDQYKTPMENIGLQDSLLSRFDLLFIMLDQMDPEQDREISDHVLRMHRYRAPGEQDGDAMPLGSAVDILATDDPNFSQEDQQDTQIYEKHDNLLHGTKKKKEKMVSAAFMKKYIHVAKIIKPVLTQESATYIAEEYSRLRSQDSMSSDTARTSPVTARTLETLIRLATAHAKARMSKTVDLQDAEEAVELVQYAYFKKVLEKEKKRKKRSEDESETEDEEEKSQEDQEQKRKRRKTRQPDAKDGDSYDPYDFSDTEEEMPQVHTPKTADSQETKESQKVELSESRLKAFKVALLDVFREAHAQSIGMNRLTESINRDSEEPFSSVEIQAALSKMQDDNQVMVSEGIIFLI
- binding [1]: binds

B6: MCM5 (protein, UniProt P33992 1-734)
chain: MSGFDDPGIFYSDSFGGDAQADEGQARKSQLQRRFKEFLRQYRVGTDRTGFTFKYRDELKRHYNLGEYWIEVEMEDLASFDEDLADYLYKQPAEHLQLLEEAAKEVADEVTRPRPSGEEVLQDIQVMLKSDASPSSIRSLKSDMMSHLVKIPGIIIAASAVRAKATRISIQCRSCRNTLTNIAMRPGLEGYALPRKCNTDQAGRPKCPLDPYFIMPDKCKCVDFQTLKLQELPDAVPHGEMPRHMQLYCDRYLCDKVVPGNRVTIMGIYSIKKFGLTTSRGRDRVGVGIRSSYIRVLGIQVDTDGSGRSFAGAVSPQEEEEFRRLAALPNVYEVISKSIAPSIFGGTDMKKAIACLLFGGSRKRLPDGLTRRGDINLLMLGDPGTAKSQLLKFVEKCSPIGVYTSGKGSSAAGLTASVMRDPSSRNFIMEGGAMVLADGGVVCIDEFDKMREDDRVAIHEAMEQQTISIAKAGITTTLNSRCSVLAAANSVFGRWDETKGEDNIDFMPTILSRFDMIFIVKDEHNEERDVMLAKHVITLHVSALTQTQAVEGEIDLAKLKKFIAYCRVKCGPRLSAEAAEKLKNRYIIMRSGARQHERDSDRRSSIPITVRQLEAIVRIAEALSKMKLQPFATEADVEEALRLFQVSTLDAALSGTLSGVEGFTSQEDQEMLSRIEKQLKRRFAIGSQVSEHSIIKDFTKQKYPEHAIHKVLQLMLRRGEIQHRMQRKVLYRLK
- binding [1]: binds

B7: MCM6 (protein, UniProt Q14566 1-821)
chain: MDLAAAAEPGAGSQHLEVRDEVAEKCQKLFLDFLEEFQSSDGEIKYLQLAEELIRPERNTLVVSFVDLEQFNQQLSTTIQEEFYRVYPYLCRALKTFVKDRKEIPLAKDFYVAFQDLPTRHKIRELTSSRIGLLTRISGQVVRTHPVHPELVSGTFLCLDCQTVIRDVEQQFKYTQPNICRNPVCANRRRFLLDTNKSRFVDFQKVRIQETQAELPRGSIPRSLEVILRAEAVESAQAGDKCDFTGTLIVVPDVSKLSTPGARAETNSRVSGVDGYETEGIRGLRALGVRDLSYRLVFLACCVAPTNPRFGGKELRDEEQTAESIKNQMTVKEWEKVFEMSQDKNLYHNLCTSLFPTIHGNDEVKRGVLLMLFGGVPKTTGEGTSLRGDINVCIVGDPSTAKSQFLKHVEEFSPRAVYTSGKASSAAGLTAAVVRDEESHEFVIEAGALMLADNGVCCIDEFDKMDVRDQVAIHEAMEQQTISITKAGVKATLNARTSILAAANPISGHYDRSKSLKQNINLSAPIMSRFDLFFILVDECNEVTDYAIARRIVDLHSRIEESIDRVYSLDDIRRYLLFARQFKPKISKESEDFIVEQYKHLRQRDGSGVTKSSWRITVRQLESMIRLSEAMARMHCCDEVQPKHVKEAFRLLNKSIIRVETPDVNLDQEEEIQMEVDEGAGGINGHADSPAPVNGINGYNEDINQESAPKASLRLGFSEYCRISNLIVLHLRKVEEEEDESALKRSELVNWYLKEIESEIDSEEELINKKRIIEKVIHRLTHYDHVLIELTQAGLKGSTEGSESYEEDPYLVVNPNYLLED
- binding [1]: binds
